# From patent US20260022143A1 (JANSSEN PHARMACEUTICA NV, priority 2022, published 2026)
# How the values were obtained:
# [1] = general procedure: Fmoc solid-phase peptide synthesis; Rink Amide MBHA resin (C-terminal amides); pre-loaded Wang resin (C-terminal acids); HBTU/DIEA (PyAOP/DIEA for some couplings); Oxyma/DIC; conditions: one disulfide bridge; for oxidative folding yield: oxidative folding step
# [2] = general procedure: Fmoc solid-phase peptide synthesis; Sar-CTC Resin; HBTU/DIEA (PyAOP/DIEA for some couplings); Oxyma/DIC; conditions: whole synthesis, scale 0.30 mmol, one disulfide bridge
Substance,oxidative folding yield ([1]; sequence written open),isolated mass [2],oxidative folding yield ([1]; for this step),"final HPLC purity ([1]; whole synthesis, analysis on a C18 column, flow rate 1 mL/min)","isolated yield ([1]; whole synthesis, overall)"
MeCO-Pen(3)—N-T-7MeW—K(Ac)-Pen(3)-AEF-2Nal-THIP-E-N-3Pya-Sar-COMor,Yield: 12.6%,–,–,–,–
CF3CO-Pen(3)-N(N(Me)2)-T-7MeW-K(NMeAc)-Pen(3)-AEF-2Nal-THP-K(NMeAc)-N-3Pya-Sar-CON(Me)2,–,49.7 mg,12.1%,95.0%,6.83%
cPEG5aCO-Pen(3)-N(N(Me)2)-T-7MeW-Dab(NMecPEG5a)-Pen(3)-AEF-2Nal-THP-E-N-3Pya-Sar-CON(Me)2,Y=10%,–,–,–,–
MeCO-k(Me)3-Pen(3)-N(N(Me)2)-T-7MeW-K(NMeAc)-Pen(3)-AEF(N(Me)2)-2Nal-THP-E-N-3Pya-Sar-CON(Me)2,Y=13.4%,–,–,–,–
